In the test the target is IPD082Aa-2, 20.5 kDa C-terminal fragment of IPD082Aa (Pseudomonas vranovensis). The experiment in a line: co-expression in E. coli (polycistronic); complex co-purified by immobilized metal ion chromatography with a His-tag on only one of the two fragments.

No constants are given. Whether binding was seen depends on the method and setting. Binding seen in cells or lysates may run through a third protein. Some binding calls cover weakened binding; strength is not graded here.

B1: IPD082Aa-1, N-terminal region of IPD082Aa (pETDuet-1 construct, N-6 His) (other)
chain: MQTTVSETLVSGSDPRLQVSMGNETANGRWDNPYAIQFTYSIAGRQFFYGQNLKTHYWFIQELLPGGKMGQETANGRWDNPYAVQFAFSVGGRQFFYGQNLETNYWFIQELLAGGKMGQETANGRWNNPYASQFAFSVGGRQFFYGQNLKTNYWFIQELLAGGKMGQETANGTLDGPFAVQFPFSVGGSQYFYGQNIKDRSWFIKELLAGGKVGKTTASGRWDNAYAVQFAYPAEQYGRQYFYGQNLDTNYWFVQELLPGGAMGEEIMNGRWGNPYATQFAYEQGGISYFYGQNQSSNYWFIQELLSDTEYTVRRLPLLDYSSSTSAAQQSAPGVCL
notes: Co-expressed in pETDuet-1 with untagged C-terminal fragments of IPD082 homologs; not shown: N-terminal 6xHis tag of the pETDuet-1 vector ('N-6 His for -1')
As for B1, the binding result is recorded as “binds”.

(Values after patent publication US20180325119A1 (PIONEER HI BRED INTERNATIONAL, published 2018).)
